According to article PMC4775216:
These are yes or no findings as the source states them, for the method shown. Binding seen in cells or lysates may run through a third protein. Some entries that bind do so weakly or less than the wild type.

Protein sequences, listed by entry. Tags and fused reporters are not part of them.
UniProt Q62311: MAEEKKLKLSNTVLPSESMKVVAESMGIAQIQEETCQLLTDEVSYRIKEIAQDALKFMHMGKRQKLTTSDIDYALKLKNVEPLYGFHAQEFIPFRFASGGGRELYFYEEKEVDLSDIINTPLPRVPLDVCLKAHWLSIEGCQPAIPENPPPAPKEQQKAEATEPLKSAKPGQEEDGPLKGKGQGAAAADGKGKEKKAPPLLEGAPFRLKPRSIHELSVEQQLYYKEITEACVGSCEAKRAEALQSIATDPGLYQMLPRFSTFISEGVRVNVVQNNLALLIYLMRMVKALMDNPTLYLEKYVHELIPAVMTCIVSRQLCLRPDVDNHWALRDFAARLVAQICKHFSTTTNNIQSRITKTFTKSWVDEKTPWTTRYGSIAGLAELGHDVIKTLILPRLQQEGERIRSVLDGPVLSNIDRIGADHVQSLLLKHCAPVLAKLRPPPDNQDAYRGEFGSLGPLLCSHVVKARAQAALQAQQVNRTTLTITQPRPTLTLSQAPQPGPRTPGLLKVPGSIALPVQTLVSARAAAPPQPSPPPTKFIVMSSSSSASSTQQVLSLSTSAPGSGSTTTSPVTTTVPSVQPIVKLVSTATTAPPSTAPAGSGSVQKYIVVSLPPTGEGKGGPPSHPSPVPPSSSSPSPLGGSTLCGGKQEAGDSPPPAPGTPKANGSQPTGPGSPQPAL

T1: TATA-box binding protein (TBP) (mouse (endogenous in C2C12)) (UniProt P29037)
T1 sequence: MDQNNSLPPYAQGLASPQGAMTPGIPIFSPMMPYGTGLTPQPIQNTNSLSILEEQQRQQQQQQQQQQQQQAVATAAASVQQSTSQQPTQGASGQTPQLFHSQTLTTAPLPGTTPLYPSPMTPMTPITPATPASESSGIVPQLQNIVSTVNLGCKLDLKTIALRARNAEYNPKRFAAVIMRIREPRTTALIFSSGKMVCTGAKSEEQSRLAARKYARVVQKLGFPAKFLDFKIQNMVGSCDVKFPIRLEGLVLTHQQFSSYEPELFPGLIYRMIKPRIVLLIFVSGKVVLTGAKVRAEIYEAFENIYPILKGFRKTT


Key:
[1] = biological target: T1, TATA-box binding protein (TBP) (mouse (endogenous in C2C12)); assay: co-sedimentation; 10-55% glycerol gradient size fractionation of C2C12 myoblast and myotube nuclear extracts; BC buffer, 150 mM KCl, 45,000 rpm for 16 hr at 4°C; fractions analysed by immunoblot
[2] = biological target: T1, TATA-box binding protein (TBP) (mouse (endogenous in C2C12)); assay: co-IP; endogenous TBP immunoprecipitated with anti-TBP (3TF1-3G3) cross-linked to protein G magnetic beads from C2C12 myoblast and myotube nuclear extracts; BC buffer, 150 mM KCl, overnight at 4°C, with Benzonase; washes at 150 and 300 mM KCl; eluted with TBP peptide PA81; immunoblot

Molecule | binding [1] | binding [2]
TAF6, core subunit of TFIID (from UniProt Q62311 1-678) | binds | binds
TAF4, core subunit of TFIID (protein, UniProt E9QAP7 1-1042) MAAGSDLLDEVFFNSEVDEKVVSDLVGSLESQLAASAAHHHHLAPRTPELRAAAAGALGNHVVSGSPAGAAGAGPAASAEGAPAAAPEPPPAGRARPAGGGPRRPGSSSPRRLLVPAGPAPAPAKLRPLPEASAGPCPAAAAAAAATAAAVAGPDPAAAAPPAGPGASKPGPPGPPGPGAAQTLNGSAAPPTAPHAAPAVSPVNNGPAPPPAAGSVIQAAPAPAAPSPPAAPAPAAPPPPAPPAPVAPARPPGHPAAPAPPVSPAAAAAAAAAAAAAQNGAAPAPAAASGGAAGLGQPGAGAQGAKAEAPKPGPGPGPGPAAAAAAAGVAGGGAAGSVLLGPAMPGALPGPAPGTPAGLAKGAAAATPSLPRTPAATTGAIRATLTPTVLAPRLPQPPQNPTNIQNFQLPPGMVLVRSENGQLLMIPQQALAQMQAHAQAQPQSTMAPRPATPTGAPPVQISTVQAPGTPIIARQVTPTTIIKQVSQAQTTVQPTTTLQRSPGVQPQLVLGGSAQPASLGTATAVQTGTPQRTVPGASTTSTAATETMENVKKCKSFLSTLIKLASSGKQSTETAANVKDLVQNLLDGKIEAEDFTSRLYRELNSSPQPYLVPFLKRSLPALRQLTPDSAAFIQQSQQQQPPASQATTALTAVVLSSSVQRTAGKTAASVTSALQPPVISLTQPTQVGVGKQAPPTPLVIQQPPKPGALIRPPQVTLTQTPMVALRQPHNRIMLTTPQQIQLNQLQPVPVVKPTVLPGTKALSTVSAQAAAAQKNKLKEPGGGSFRDDDDINDVASMAGVNLSEESARILATNSELVGTLTRSCKDDTFLLPAPLQRRILEIGKKHGITELHPDVVSYVSHATQQRLQNLVEKISETAQQKNFSYKDDDRYEQASDVRAQLKFFEQLDQIEKQRKDEQEREILMRAAKSRSRQEDPEQLRLKQKAKEMQQQELAQMRQRDANLTALAAIGPRKKRKVDCTGPGSGAEGSGPGAAVPGGSGVGTPRQFTRQRITRVNLRDLIFCLENERETSHSLLLYKAFLK | binds | binds
